According to the supplement of paper PMC12889115:
This is one part of the list. These are raw signals, not scaled to a control.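 First-pass screen: polymyxin B was added at a level that permeabilizes the Salmonella outer membrane while sparing the inner membrane. DMSO wells, with and without polymyxin B, defined maximum growth. Because plates differed from one another, each plate's data were ranked separately and the compounds with the lowest OD600 were carried forward as hits.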

Tested on: Salmonella enterica serovar Typhimurium SL1344
Test: bacterial growth OD600 after 18 h with compound and polymyxin B; higher = more bacterial growth (less inhibition)
Settings: 50 µM, Mueller-Hinton broth

## COCCN1C(=O)CC(CC(=O)N2CCCC(C(=O)N3CCOCC3)C2)(c2ccccc2F)C1=O (stereo unspecified)
Polymyxin B 0.75 µg/mL
  bacterial growth OD600: 0.834

## COc1ccc(NC2CCCN(C(=O)c3cn(C)c4ccccc34)C2)cc1 (stereo unspecified)
Polymyxin B 1 µg/mL
  bacterial growth OD600: 0.778

## C=C(C)CN(CC)C(=O)C1CCCN(C2CCN(C(=O)C3CC3)CC2)C1 (stereo unspecified)
Polymyxin B 0.75 µg/mL
  bacterial growth OD600: 0.764

## Cc1cc(C)n(Cc2cc(C(=O)N(C)C(C)c3nccs3)n[nH]2)n1 (stereo unspecified)
Polymyxin B 1 µg/mL
  bacterial growth OD600: 0.971

## O=C(CCc1cccnc1)N1CCCC(CCc2ccc(F)c(F)c2)C1 (stereo unspecified)
Polymyxin B 0.75 µg/mL
  bacterial growth OD600: 0.351

## Cc1ccc(CN2CCCC(CCC(=O)Nc3ccccc3F)C2)o1 (stereo unspecified)
Polymyxin B 1 µg/mL
  bacterial growth OD600: 0.927

## CCOC(=O)C1(CCc2ccccc2)CCN(C(=O)c2cccc(C)n2)CC1
Polymyxin B 1 µg/mL
  bacterial growth OD600: 0.959

## CC(Cc1cc(C(=O)NCCc2ccccc2)on1)c1ccccc1 (stereo unspecified)
Polymyxin B 0.75 µg/mL
  bacterial growth OD600: 0.6

## CN1C(=O)CC(CC(=O)N2CCCC2c2nccs2)(c2ccc(-c3ccccc3)cc2)C1=O (stereo unspecified)
Polymyxin B 0.75 µg/mL
  bacterial growth OD600: 0.005

## CCOC(=O)C1(Cc2cccc(Cl)c2)CCCN(C(=O)c2cccc(OC)c2OC)C1 (stereo unspecified)
Polymyxin B 1 µg/mL
  bacterial growth OD600: 0.323

## O=C(CCN1CCCCCC1=O)NC1CCCN(CCc2ccccc2)C1 (stereo unspecified)
Polymyxin B 0.75 µg/mL
  bacterial growth OD600: 0.789

## Cc1cnc(C)c(N2CCN(C(=O)c3cn(C4CCCCC4)nn3)CC2)n1
Polymyxin B 1 µg/mL
  bacterial growth OD600: 0.789

## Cc1cccc(N2CCN(Cc3c[nH]nc3-c3ccc(F)cc3F)CC2)n1
Polymyxin B 1 µg/mL
  bacterial growth OD600: 0.896

## O=C(C1CCOC1)N1CCc2[nH]nc(-c3ccccc3)c2C1 (stereo unspecified)
Polymyxin B 0.75 µg/mL
  bacterial growth OD600: 0.842

## CCCCNC1CCN(c2ccc(C(=O)NC(C)c3ccccc3)cc2)CC1 (stereo unspecified)
Polymyxin B 0.75 µg/mL
  bacterial growth OD600: 0.877

## O=C(c1c(F)ccc(F)c1F)N1CCCC(Nc2cccc(F)c2)C1 (stereo unspecified)
Polymyxin B 0.75 µg/mL
  bacterial growth OD600: 0.748

## CCOC(=O)C1(CCc2ccccc2)CCN(C(=O)CCc2c(C)noc2C)CC1
Polymyxin B 1 µg/mL
  bacterial growth OD600: 0.027

## Cc1ccc(-c2ccc(C(=O)N3CCC4(CC3)CC4C(=O)N3CCN(c4ccccn4)CC3)cc2)cc1 (stereo unspecified)
Polymyxin B 0.75 µg/mL
  bacterial growth OD600: 0.011

## COc1ccc(-c2ccccc2NC(=O)C2CCCN2S(C)(=O)=O)cc1 (stereo unspecified)
Polymyxin B 1 µg/mL
  bacterial growth OD600: 0.957

## CCC(CC)N1CCC(N2CCC(C(=O)NCc3cccnc3)CC2)CC1
Polymyxin B 1 µg/mL
  bacterial growth OD600: 1.03

## Cc1ccc(NC2CCCN(C(=O)c3ccccc3)C2)cc1C (stereo unspecified)
Polymyxin B 1 µg/mL
  bacterial growth OD600: 0.852

## CN(Cc1nc(-c2ccccc2)no1)CC1Cc2ccccc2O1 (stereo unspecified)
Polymyxin B 1 µg/mL
  bacterial growth OD600: 1.08

## CCc1ocnc1C(=O)N1CCC(C2CCN(CCc3ccccc3)C2)CC1 (stereo unspecified)
Polymyxin B 0.75 µg/mL
  bacterial growth OD600: 0.007

## CCC1CN(CCC(=O)N2CCN(Cc3csc(C)n3)CC2)Cc2cc(OC)ccc2O1 (stereo unspecified)
Polymyxin B 0.75 µg/mL
  bacterial growth OD600: 0.803

## COc1cccc(C(=O)N2CCOc3c(cc(-c4ccccc4C)cc3OC3CCOC3)C2)c1 (stereo unspecified)
Polymyxin B 0.75 µg/mL
  bacterial growth OD600: 0.929

## CC(C)c1nccn1CCCNC(=O)c1ccc(N2CCCC2)nc1
Polymyxin B 1 µg/mL
  bacterial growth OD600: 0.88

## CCNC(=O)N1CCCC(CCc2cccc(F)c2)C1 (stereo unspecified)
Polymyxin B 0.75 µg/mL
  bacterial growth OD600: 0.013

## O=C1CC(NS(=O)(=O)N2CCCCC2)CN1CCc1ccccc1 (stereo unspecified)
Polymyxin B 1 µg/mL
  bacterial growth OD600: 0.932

## COCCC(=O)N1CCC(C(=O)Nc2cccc(-c3nnc(C)s3)c2)CC1
Polymyxin B 1 µg/mL
  bacterial growth OD600: 0.969

## COCc1ccc(CN2CCC(CO)(Cc3cccc(OC)c3)CC2)o1
Polymyxin B 0.75 µg/mL
  bacterial growth OD600: 0.835

## Cc1[nH]c2c(C(=O)N3CCOc4ccc(CN5CCN(c6ccccn6)CC5)cc4C3)cccc2c1C
Polymyxin B 0.75 µg/mL
  bacterial growth OD600: 0.498
